No constants are given. Whether binding was seen depends on the method and setting. For some assays here: Binding seen in cells or lysates may run through a third protein. Some binding calls cover weakened binding; strength is not graded here. For some assays here: Sequences can lack the tags named with a protein. Blank lines part the entries; values can stand above or below the molecule they belong to.
Experiments:
[1] = target: endogenous FGFR1 (NIH3T3 cells) (mouse (endogenous in NIH3T3)) (UniProt P16092); assay: co-IP; endogenous proteins in NIH3T3 cells; details in Additional file 1: Figure S2
[2] = target: recombinant galectin-1 (His-Tag fusion) (UniProt P09382); assay: pull-down; His-tagged galectin-1 or galectin-3 (10 μg) bound to Ni-NTA agarose in 50 mM Tris, 150 mM NaCl, pH 7.4; U2OS-R1 lysate, 2 h at 4 °C; western blotting; only the target purified
[3] = target: full-length extracellular portion of FGFR2 (IIIc) fused to Fc (UniProt P21802); assay: BLI; Octet RED K2; FGFR1ecd-Fc to FGFR4ecd-Fc (10 μg/ml) immobilised on AR2G or Protein-A sensors, galectin-1 or galectin-3 10–30 μg/ml; for binding constants 2.8 μM to 11.4 μM galectin, heterogeneous ligand (2:1) model; empty reference sensor subtracted; both purified
[4] = target: full-length extracellular portion of FGFR3 (IIIc) fused to Fc (UniProt P22607); assay: as above
[5] = target: T1, full-length extracellular portion of FGFR4 fused to Fc (UniProt P22455); assay: as above
T1 sequence: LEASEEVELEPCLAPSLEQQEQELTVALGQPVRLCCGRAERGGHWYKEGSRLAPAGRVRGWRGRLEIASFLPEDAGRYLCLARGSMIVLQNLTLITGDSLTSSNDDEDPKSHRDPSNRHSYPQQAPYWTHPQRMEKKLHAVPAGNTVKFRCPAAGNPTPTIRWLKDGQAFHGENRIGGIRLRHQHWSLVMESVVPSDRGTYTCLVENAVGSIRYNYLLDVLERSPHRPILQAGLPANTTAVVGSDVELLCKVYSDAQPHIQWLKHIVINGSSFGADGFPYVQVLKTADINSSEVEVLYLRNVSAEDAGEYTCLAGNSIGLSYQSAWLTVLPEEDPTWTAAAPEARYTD

The chains behind the UniProt entries cited, without tags or fusion partners. Residues count along the entry.
UniProt P16092, residues 22-822: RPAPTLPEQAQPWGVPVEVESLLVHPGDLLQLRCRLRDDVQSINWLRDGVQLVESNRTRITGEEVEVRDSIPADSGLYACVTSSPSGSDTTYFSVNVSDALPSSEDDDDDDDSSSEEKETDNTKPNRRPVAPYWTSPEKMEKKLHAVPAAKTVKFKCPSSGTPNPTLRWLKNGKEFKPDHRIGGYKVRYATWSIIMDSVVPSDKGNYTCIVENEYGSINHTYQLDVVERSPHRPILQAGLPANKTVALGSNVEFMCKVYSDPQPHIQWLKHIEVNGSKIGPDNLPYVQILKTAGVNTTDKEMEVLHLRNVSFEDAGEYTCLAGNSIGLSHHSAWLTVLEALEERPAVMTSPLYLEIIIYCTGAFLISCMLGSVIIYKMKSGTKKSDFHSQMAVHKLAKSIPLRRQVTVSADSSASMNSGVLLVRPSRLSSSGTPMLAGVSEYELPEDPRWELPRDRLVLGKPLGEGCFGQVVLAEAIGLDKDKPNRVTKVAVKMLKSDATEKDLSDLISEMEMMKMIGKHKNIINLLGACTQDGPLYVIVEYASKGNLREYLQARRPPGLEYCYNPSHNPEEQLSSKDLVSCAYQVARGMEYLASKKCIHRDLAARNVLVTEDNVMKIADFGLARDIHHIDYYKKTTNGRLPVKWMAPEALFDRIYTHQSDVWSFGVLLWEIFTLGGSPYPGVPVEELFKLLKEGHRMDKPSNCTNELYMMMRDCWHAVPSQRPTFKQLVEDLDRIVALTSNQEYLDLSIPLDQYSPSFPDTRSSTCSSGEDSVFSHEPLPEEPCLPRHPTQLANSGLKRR
UniProt P09382: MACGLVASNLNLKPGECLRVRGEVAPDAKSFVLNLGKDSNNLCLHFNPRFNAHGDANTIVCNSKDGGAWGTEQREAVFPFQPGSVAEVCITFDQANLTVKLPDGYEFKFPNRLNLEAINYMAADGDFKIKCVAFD
UniProt P21802, residues 22-377: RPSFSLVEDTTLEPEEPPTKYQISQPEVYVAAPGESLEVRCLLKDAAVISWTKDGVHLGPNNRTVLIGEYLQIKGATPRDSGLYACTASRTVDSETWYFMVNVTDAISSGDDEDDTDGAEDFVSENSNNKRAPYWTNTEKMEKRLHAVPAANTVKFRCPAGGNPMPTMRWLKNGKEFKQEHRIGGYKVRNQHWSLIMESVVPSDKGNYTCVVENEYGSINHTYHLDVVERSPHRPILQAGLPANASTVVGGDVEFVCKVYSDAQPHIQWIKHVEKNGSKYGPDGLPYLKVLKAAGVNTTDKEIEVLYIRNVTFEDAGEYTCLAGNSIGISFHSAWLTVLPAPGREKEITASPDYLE
UniProt P22607, residues 23-375: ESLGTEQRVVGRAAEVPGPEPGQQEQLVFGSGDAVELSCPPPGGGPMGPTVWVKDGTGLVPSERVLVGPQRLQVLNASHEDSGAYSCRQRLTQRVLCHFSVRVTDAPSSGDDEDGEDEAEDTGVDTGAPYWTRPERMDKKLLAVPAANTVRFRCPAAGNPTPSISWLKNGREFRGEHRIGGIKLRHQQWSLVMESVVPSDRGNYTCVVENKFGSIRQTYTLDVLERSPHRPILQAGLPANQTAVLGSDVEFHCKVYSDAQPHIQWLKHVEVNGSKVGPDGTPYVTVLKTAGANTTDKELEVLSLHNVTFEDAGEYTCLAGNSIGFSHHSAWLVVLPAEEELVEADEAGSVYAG
UniProt P11362, residues 22-822: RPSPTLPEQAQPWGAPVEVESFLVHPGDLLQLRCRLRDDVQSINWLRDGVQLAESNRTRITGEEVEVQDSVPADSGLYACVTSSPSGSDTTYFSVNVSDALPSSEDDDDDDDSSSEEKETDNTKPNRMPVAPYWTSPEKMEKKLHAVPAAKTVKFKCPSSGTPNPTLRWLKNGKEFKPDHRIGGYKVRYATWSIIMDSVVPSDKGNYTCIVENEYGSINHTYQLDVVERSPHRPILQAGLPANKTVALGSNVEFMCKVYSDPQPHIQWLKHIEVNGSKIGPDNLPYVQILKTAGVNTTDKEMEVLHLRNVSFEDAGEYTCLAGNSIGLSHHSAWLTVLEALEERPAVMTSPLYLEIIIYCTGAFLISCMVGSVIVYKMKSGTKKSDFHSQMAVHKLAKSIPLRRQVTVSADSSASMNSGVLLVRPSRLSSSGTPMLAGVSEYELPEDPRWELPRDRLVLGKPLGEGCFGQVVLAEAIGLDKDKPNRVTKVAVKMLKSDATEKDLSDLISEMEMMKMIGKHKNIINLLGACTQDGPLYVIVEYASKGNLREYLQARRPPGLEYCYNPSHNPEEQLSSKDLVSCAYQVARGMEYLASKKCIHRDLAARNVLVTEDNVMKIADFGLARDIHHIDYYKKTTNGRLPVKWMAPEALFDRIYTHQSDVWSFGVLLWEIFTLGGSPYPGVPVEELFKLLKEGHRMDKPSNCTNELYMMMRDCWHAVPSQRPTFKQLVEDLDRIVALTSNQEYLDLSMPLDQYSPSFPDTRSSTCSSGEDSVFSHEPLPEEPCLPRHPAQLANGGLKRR
UniProt P16110: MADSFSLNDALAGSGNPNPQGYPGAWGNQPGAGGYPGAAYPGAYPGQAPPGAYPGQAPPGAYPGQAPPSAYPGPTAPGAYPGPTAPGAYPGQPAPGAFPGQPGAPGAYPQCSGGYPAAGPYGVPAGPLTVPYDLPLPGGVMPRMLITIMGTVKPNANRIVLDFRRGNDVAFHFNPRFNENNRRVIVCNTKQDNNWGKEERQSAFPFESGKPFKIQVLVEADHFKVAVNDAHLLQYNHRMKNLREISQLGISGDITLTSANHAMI
UniProt P10809, residues 27-573: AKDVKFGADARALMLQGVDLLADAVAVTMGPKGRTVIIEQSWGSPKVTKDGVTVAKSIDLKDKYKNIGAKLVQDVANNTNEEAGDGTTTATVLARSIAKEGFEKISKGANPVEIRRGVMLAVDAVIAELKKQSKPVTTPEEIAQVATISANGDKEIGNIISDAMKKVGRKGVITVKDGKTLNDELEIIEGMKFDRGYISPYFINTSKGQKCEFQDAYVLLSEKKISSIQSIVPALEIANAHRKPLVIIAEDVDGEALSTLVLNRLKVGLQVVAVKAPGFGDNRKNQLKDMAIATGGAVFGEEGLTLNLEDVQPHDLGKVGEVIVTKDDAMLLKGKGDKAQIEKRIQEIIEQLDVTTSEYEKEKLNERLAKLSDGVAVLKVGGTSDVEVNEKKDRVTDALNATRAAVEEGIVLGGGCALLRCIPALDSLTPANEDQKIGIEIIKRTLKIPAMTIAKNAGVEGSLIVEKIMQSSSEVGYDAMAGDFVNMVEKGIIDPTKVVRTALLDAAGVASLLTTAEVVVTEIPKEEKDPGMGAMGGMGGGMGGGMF
UniProt P17931: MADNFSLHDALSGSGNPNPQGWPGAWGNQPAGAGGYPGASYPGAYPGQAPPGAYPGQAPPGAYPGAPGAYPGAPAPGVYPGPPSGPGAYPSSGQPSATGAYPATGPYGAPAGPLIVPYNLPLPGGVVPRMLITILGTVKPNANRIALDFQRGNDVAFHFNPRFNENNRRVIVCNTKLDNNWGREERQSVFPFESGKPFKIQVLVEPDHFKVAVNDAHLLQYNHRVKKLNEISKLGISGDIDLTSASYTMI
UniProt P16045: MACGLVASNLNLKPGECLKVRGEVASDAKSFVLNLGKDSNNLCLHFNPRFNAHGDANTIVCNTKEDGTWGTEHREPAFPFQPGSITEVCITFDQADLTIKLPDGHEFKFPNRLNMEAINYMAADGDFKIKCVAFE
UniProt Q15418: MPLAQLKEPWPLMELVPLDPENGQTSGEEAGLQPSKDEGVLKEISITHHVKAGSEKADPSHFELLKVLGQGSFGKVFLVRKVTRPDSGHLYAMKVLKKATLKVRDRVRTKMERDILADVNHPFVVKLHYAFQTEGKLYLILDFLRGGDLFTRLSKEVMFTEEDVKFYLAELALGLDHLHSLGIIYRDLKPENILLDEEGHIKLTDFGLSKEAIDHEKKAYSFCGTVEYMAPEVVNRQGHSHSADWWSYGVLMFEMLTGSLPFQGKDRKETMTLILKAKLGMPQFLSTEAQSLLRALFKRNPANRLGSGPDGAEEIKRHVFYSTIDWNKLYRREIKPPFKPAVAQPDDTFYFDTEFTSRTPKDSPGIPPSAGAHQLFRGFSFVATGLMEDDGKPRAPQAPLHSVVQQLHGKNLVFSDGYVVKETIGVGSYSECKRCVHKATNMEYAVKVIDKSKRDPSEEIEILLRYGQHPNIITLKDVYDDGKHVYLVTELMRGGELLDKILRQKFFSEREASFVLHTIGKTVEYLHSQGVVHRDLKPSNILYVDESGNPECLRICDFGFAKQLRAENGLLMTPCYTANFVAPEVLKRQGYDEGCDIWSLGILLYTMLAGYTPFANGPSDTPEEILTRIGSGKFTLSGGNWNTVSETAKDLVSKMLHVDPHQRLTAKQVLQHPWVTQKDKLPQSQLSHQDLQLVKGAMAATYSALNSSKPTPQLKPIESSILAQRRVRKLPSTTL

[6] = target: streptavidin-binding peptide (SBP)-tagged FGFR1 (UniProt P11362); assay: pull-down; Streptavidin-Agarose pull down of SBP-FGFR1 from U2OS-SBP-R1 lysate (control U2OS-R1), 3 h at 4 °C; western blotting
[7] = target: streptavidin-binding peptide (SBP)-tagged FGFR1 (UniProt P11362); assay: pull-down; U2OS-SBP-R1 cells treated with FGF1 (50 ng/ml) and heparin (10 U/ml) or not, fractionated into membrane, cytosolic and nuclear fractions; co-purification with SBP-FGFR1; western blotting

Molecule: endogenous galectin-3 (NIH3T3 cells) (from UniProt P16110 1-264)
- binding [1]: binds

Molecule: FGFR1 (non-tagged, U2OS-R1 cells) (from UniProt P11362 22-822) (receptor)
- binding [2]: binds

Molecule: Hsp60 (from UniProt P10809 27-573)
- binding [6]: no binding

Molecule: endogenously expressed galectin-1 (U2OS-SBP-R1 cells) (from UniProt P09382 1-135)
- binding [6]: binds
- binding [7]: binds

Molecule: recombinant galectin-1 (His-Tag fusion) (from UniProt P09382 1-135)
- binding [3]: binds
- binding [4]: binds
- binding [5]: binds

B1: EGF-like repeat and discoidin I-like domain-containing protein 3 (protein, UniProt O43854 24-480)
chain: DICDPNPCENGGICLPGLADGSFSCECPDGFTDPNCSSVVEVASDEEEPTSAGPCTPNPCHNGGTCEISEAYRGDTFIGYVCKCPRGFNGIHCQHNINECEVEPCKNGGICTDLVANYSCECPGEFMGRNCQYKCSGPLGIEGGIISNQQITASSTHRALFGLQKWYPYYARLNKKGLINAWTAAENDRWPWIQINLQRKMRVTGVITQGAKRIGSPEYIKSYKIAYSNDGKTWAMYKVKGTNEDMVFRGNIDNNTPYANSFTPPIKAQYVRLYPQVCRRHCTLRMELLGCELSGCSEPLGMKSGHIQDYQITASSIFRTLNMDMFTWEPRKARLDKQGKVNAWTSGHNDQSQWLQVDLLVPTKVTGIITQGAKDFGHVQFVGSYKLAYSNDGEHWTVYQDEKQRKDKVFQGNFDNDTHRKNVIDPPIYARHIRILPWSWYGRITLRSELLGCTEEE
- binding [6]: binds

More lines, now with the values ahead:

- binding [3]: binds
- binding [4]: binds
- binding [5]: binds
Molecule: recombinant galectin-3 (His-Tag fusion) (from UniProt P17931 1-250)

- binding [1]: binds
Molecule: endogenous galectin-1 (NIH3T3 cells) (from UniProt P16045 1-135)

- binding [6]: binds
Molecule: RSK1 (Ribosomal S6-kinase) (from UniProt Q15418 1-735) (enzyme)

From PMC6572767
